According to patent publication US8716439 (dated 2014):

Assay: general procedure: solution-phase peptide synthesis; EDC hydrochloride / HOBt monohydrate

With Boc-D-Leu-Leu-Arg(Ts)-Pro-NEtBn the step yield (coupling step) was 99% and the “crude purity (method not given)” value (coupling step, HPLC) was 93%.
For Boc-GGFL-OBn, the step yield (coupling step) was 73%, the “crude purity (method not given)” value (coupling step, HPLC) was 92% and the “final purity (method not given)” value (purification step, HPLC) was 95%. The step yield (purification step, crystallization yield) was 71%, the “crude purity (method not given)” value (whole synthesis, HPLC) was 87% and the crude yield (whole synthesis, relative to Leu-OBn•TsOH salt) was 82%.
In the case of Boc-S(Bn)Y(Bn)[dL]LR(Tos)P-NHEt, the step yield (coupling step) is reported as 84% and the “crude purity (method not given)” value (coupling step, HPLC) is reported as 83%.
For Boc-Tyr(Bn)-D-Leu-Leu-Arg(Ts)-Pro-NEtBn, the step yield (coupling step) was 97% and the “crude purity (method not given)” value (coupling step, HPLC) was 66%.
For Boc-[dL]LR(Tos)P-NHEt, the step yield (coupling step) was 85% and the “crude purity (method not given)” value (coupling step, HPLC) was 95%.

Square brackets hold non-standard residues; d marks the D form. * marks the point of attachment. Tos = Cc1ccc(S(=O)(=O)*)cc1; Boc = CC(C)(C)OC(=O)*; OBn = c1ccc(CO*)cc1; Bn = c1ccc(C*)cc1
